The record followed here is the supplement of paper PMC10470496.

Molecules are shown by their SMILES. Structures can show the parent of a compound that is named as a salt. The list shows a part of the results. Many values rest on one well or one pass, so single values are uncertain.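 The strains were three CDC resistance-bank clinical C. auris isolates from clades III, IV and I, cultured in RPMI-1640 at 35°C. Growth was background-corrected OD600 versus vehicle-only wells on the same plate. A hit needed >50% inhibition in two or more strains plus a plate-corrected B-score exceeding 0.1.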

What all share (assay): growth relative to vehicle control (OD600 ratio) (fraction); higher = less inhibition
Common to all, as to details: 24 h

The test system of test [1] is C. auris AR-384.
Test [2] concerns C. auris AR-386.
Test [3] relates to C. auris AR-387.

Regarding `CCC(C)n1ncn(-c2ccc(N3CCN(c4ccc(OCC5COC(Cn6cncn6)(c6ccc(Cl)cc6Cl)O5)cc4)CC3)cc2)c1=O` (centres undefined) [Itraconazole], the growth came out at 0.45 in test [1] (1 µM); 0.39 in test [1] (10 µM); 0.24 in test [2] (1 µM); 0.01 in test [2] (10 µM); 0.02 in test [3] (1 µM); 0.01 in test [3] (10 µM).
Regarding `CN(C)c1ccc(O)c2c1C[C@H]1C[C@H]3[C@H](N(C)C)C(O)=C(C(N)=O)C(=O)[C@@]3(O)C(O)=C1C2=O` [Minocycline HCl], the growth in test [1] (1 µM) worked out at 0.73; in test [1] (10 µM), 1.26; in test [2] (1 µM), 0.92; in test [2] (10 µM) it was 1.12; in test [3] (1 µM) it was 0.69; in test [3] (10 µM) it was 0.99.
In the case of `COc1ccc(C[C@H](N)C(=O)N[C@H]2[C@@H](O)[C@H](n3cnc4c(N(C)C)ncnc43)O[C@@H]2CO)cc1` [Puromycin 2HCl], the growth in test [1] (1 µM) was determined as 0.74; in test [1] (10 µM), 0.83; in test [2] (1 µM) it was 0.82; in test [2] (10 µM), 0.83; in test [3] (1 µM), 0.9; in test [3] (10 µM) it was 0.86.
`CC(=O)Oc1ccccc1C(=O)O` [Aspirin]: the growth in test [1] (1 µM) came to 0.94; in test [1] (10 µM), 0.75; in test [2] (1 µM) it was 0.88; in test [2] (10 µM), 0.94; in test [3] (1 µM), 0.94; in test [3] (10 µM) it was 0.89.
For `C[C@@](Cc1ccc(O)c(O)c1)(NN)C(=O)O` [Carbidopa], the growth in test [1] (1 µM) was 1.04; in test [1] (10 µM) it was 1.04; in test [2] (1 µM) it was 1.07; in test [2] (10 µM) it was 0.67; in test [3] (1 µM) it was 0.85; in test [3] (10 µM) it was 0.61.
Take `CC(C)c1nc(CN(C)C(=O)N[C@H](C(=O)N[C@@H](Cc2ccccc2)C[C@H](O)[C@H](Cc2ccccc2)NC(=O)OCc2cncs2)C(C)C)cs1` [Ritonavir]: the growth came to 1.14 in test [1] (1 µM); 1.4 in test [1] (10 µM); 1.28 in test [2] (1 µM); 0.6 in test [2] (10 µM); 0.7 in test [3] (1 µM); 0.57 in test [3] (10 µM).
As for `COC(=O)C1=C(C)NC(C)=C(C(=O)OCC(C)C)C1c1ccccc1[N+](=O)[O-]` (centres undefined) [Nisoldipine], the growth in test [1] (1 µM) was found to be 1.02; in test [1] (10 µM), 1.05; in test [2] (1 µM), 1.02; in test [2] (10 µM), 0.67; in test [3] (1 µM), 1.13; in test [3] (10 µM) it was 1.46.
With `CCCNC(C)C(=O)Nc1ccccc1C` (centres undefined) [Prilocaine], the growth in test [1] (1 µM) came to 0.76; in test [1] (10 µM) it was 1.28; in test [2] (1 µM), 1.01; in test [2] (10 µM), 0.56; in test [3] (1 µM), 0.7; in test [3] (10 µM), 0.59.
As to `C[C@@H](CN1CC(=O)NC(=O)C1)N1CC(=O)NC(=O)C1` [Dexrazoxane HCl (ICRF-187, ADR-529)], the growth in test [1] (1 µM) worked out at 1.16; in test [1] (10 µM) it was 0.85; in test [2] (1 µM) it was 1.11; in test [2] (10 µM), 1.19; in test [3] (1 µM) it was 0.83; in test [3] (10 µM), 1.27.
`CN1CCN(c2cc3c(cc2F)c(=O)c(C(=O)O)cn3-c2ccc(F)cc2)CC1` [Difloxacin HCl]: the growth was determined as 0.84 in test [1] (1 µM); 0.73 in test [1] (10 µM); 0.97 in test [2] (1 µM); 1 in test [2] (10 µM); 1.03 in test [3] (1 µM); 0.94 in test [3] (10 µM).
As to `CN1CC(=O)N2[C@H](c3ccc4c(c3)OCO4)c3[nH]c4ccccc4c3C[C@@H]2C1=O` [Tadalafil], the growth in test [1] (1 µM) was 0.88; in test [1] (10 µM), 1.03; in test [2] (1 µM), 1.14; in test [2] (10 µM), 1.5; in test [3] (1 µM), 1.09; in test [3] (10 µM), 1.54.
Consider `O=C1CCC(N2C(=O)c3ccccc3C2=O)C(=O)N1` (centres undefined) [Thalidomide], for which the growth was found to be 0.98 in test [1] (1 µM); 1.2 in test [1] (10 µM); 1.4 in test [2] (1 µM); 1.09 in test [2] (10 µM); 1.02 in test [3] (1 µM); 1.08 in test [3] (10 µM).
Turning to `CCN1CCN(C(=O)N[C@@H](C(=O)N[C@@H]2C(=O)N3C(C(=O)O)=C(CSc4nnnn4C)CS[C@H]23)c2ccc(O)cc2)C(=O)C1=O` [Cefoperazone], the growth in test [1] (1 µM) was 1.02; in test [1] (10 µM), 0.75; in test [2] (1 µM), 0.78; in test [2] (10 µM), 1.21; in test [3] (1 µM), 0.98; in test [3] (10 µM) it was 1.02.
In the case of `O=C(O)Cc1ccccc1Nc1c(Cl)cccc1Cl` [Diclofenac Sodium], the growth in test [1] (1 µM) was 0.79; in test [1] (10 µM), 0.69; in test [2] (1 µM), 0.84; in test [2] (10 µM), 0.78; in test [3] (1 µM) it was 0.89; in test [3] (10 µM), 1.02.
Turning to `C[C@](N)(Cc1ccc(O)c(O)c1)C(=O)O` [Methyldopa], the growth was found to be 0.91 in test [1] (1 µM); 0.62 in test [1] (10 µM); 0.72 in test [2] (1 µM); 1.28 in test [2] (10 µM); 0.85 in test [3] (1 µM); 0.84 in test [3] (10 µM).
Consider `CCCCc1ncc(/C=C(\Cc2cccs2)C(=O)O)n1Cc1ccc(C(=O)O)cc1` [Eprosartan Mesylate], for which the growth in test [1] (1 µM) was 0.8; in test [1] (10 µM), 0.98; in test [2] (1 µM), 0.79; in test [2] (10 µM), 1.04; in test [3] (1 µM), 0.9; in test [3] (10 µM), 0.88.
Regarding `Clc1ccc(COC(Cn2ccnc2)c2ccc(Cl)cc2Cl)c(Cl)c1` (centres undefined) [Miconazole Nitrate], the growth is 0.63 in test [1] (1 µM); 0.24 in test [1] (10 µM); 0.6 in test [2] (1 µM); 0.59 in test [2] (10 µM); 0.04 in test [3] (1 µM); 0.02 in test [3] (10 µM).
With `CCC(=O)O[C@]1(C(=O)SCF)[C@H](C)C[C@H]2[C@@H]3C[C@H](F)C4=CC(=O)C=C[C@]4(C)[C@@]3(F)[C@@H](O)C[C@@]21C` [Fluticasone propionate], the growth in test [1] (1 µM) came to 0.97; in test [1] (10 µM), 0.92; in test [2] (1 µM) it was 0.7; in test [2] (10 µM), 0.68; in test [3] (1 µM), 0.61; in test [3] (10 µM), 0.77.
Turning to `CN(C)C(=N)NC(=N)N` [Metformin HCl], the growth in test [1] (1 µM) was 0.8; in test [1] (10 µM), 0.94; in test [2] (1 µM), 0.82; in test [2] (10 µM) it was 0.92; in test [3] (1 µM), 0.71; in test [3] (10 µM), 1.1.
